We go through one substance from publication PMC7719821.

Sequences of proteins named here, by UniProt entry; tags and fusion partners are left off.
UniProt P27434: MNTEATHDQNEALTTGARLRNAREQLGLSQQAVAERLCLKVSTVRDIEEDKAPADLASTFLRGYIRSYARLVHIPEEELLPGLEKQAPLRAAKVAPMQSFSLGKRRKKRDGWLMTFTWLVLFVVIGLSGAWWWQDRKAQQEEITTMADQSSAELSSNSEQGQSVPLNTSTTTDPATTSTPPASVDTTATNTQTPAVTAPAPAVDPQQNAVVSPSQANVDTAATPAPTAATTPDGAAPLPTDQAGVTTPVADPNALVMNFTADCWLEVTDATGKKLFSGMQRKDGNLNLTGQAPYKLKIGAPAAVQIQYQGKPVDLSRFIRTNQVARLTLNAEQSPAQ
UniProt P0A9X4: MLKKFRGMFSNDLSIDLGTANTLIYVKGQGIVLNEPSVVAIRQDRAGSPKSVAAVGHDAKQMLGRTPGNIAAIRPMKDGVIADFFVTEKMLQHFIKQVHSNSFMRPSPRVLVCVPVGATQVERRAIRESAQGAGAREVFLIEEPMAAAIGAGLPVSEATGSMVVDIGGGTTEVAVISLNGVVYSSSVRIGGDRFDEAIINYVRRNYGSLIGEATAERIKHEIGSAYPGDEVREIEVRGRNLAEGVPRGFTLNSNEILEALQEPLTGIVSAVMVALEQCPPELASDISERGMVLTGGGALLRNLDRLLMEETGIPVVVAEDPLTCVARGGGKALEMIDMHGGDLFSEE

This test concerns the target RodZ (Escherichia coli) (UniProt P27434). Kind of test: two-hybrid; bacterial two-hybrid assay as in Shiomi and Margolin, 2007; in WT cells and in cells lacking anionic phospholipids (ΔaPLs).

Results are given in words; binding and its absence hold for the method and conditions named. Some results given as binding are weak or reduced against the parent protein; the word gives no strength.

With MreB (from UniProt P0A9X4 1-347), the binding result is given as “binds”.
